Values from PubChem BioAssay AID1224830 (NIAID, 2016)

Purpose: 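Regulators of TLR4 signalling towards TNF-alpha in macrophage-like cells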 (primary screen)
System: human THP-1 monocytic leukaemia cells, TNF dual-luciferase reporter clone, PMA-differentiated to macrophage-like cells
Knock-down reagent: siRNA pool against human genes, 50 nM
Duration: LPS for 4 h, given about 3 days after siRNA transfection
Treatment: bacterial LPS (TLR4 ligand), 10 ng/ml
Read-out: 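TNF firefly reporter luminescence divided by renilla, normalised to the plate median, then turned into a robust z-score for each replicate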
Scale: TNF reporter robust z-score: higher = stronger TNF reporter response to LPS
Call rule: 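a well is active when its z-score exceeds 2.8 or falls below -1.5; control wells carry no call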
The deposit covers about 18,000 reagents; below is a part drawn at random. About 2,900 of all reagents (16%) count as active. 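Calls are made per well; low scores hint the gene aids the LPS response, high scores that it dampens it.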 A number with no mark means an inactive call. Repeated entries: four replicate wells of each siRNA pool.

Gene | TNF reporter robust z-score
LMO7 (LIM domain 7) | 3.73 (active)
LMO7 (LIM domain 7) | 0.53
LMO7 (LIM domain 7) | -0.72
LMO7 (LIM domain 7) | 1.44
OR10G9 (olfactory receptor family 10 subfamily G member 9) | 0.45
OR10G9 (olfactory receptor family 10 subfamily G member 9) | 0.67
OR10G9 (olfactory receptor family 10 subfamily G member 9) | 0.4
OR10G9 (olfactory receptor family 10 subfamily G member 9) | 0.48
ARMH4 (armadillo like helical domain containing 4) | 1.11
ARMH4 (armadillo like helical domain containing 4) | 0.55
ARMH4 (armadillo like helical domain containing 4) | 0.81
ARMH4 (armadillo like helical domain containing 4) | 1
RAB28 (RAB28, member RAS oncogene family) | -1.25
RAB28 (RAB28, member RAS oncogene family) | -1.44
RAB28 (RAB28, member RAS oncogene family) | -1.39
RAB28 (RAB28, member RAS oncogene family) | -1.2
XK | 0.71
XK | 0.62
XK | 0.86
XK | 0.89
TSLIG2 (tRNA splicing ligase complex subunit 2) | 1.06
TSLIG2 (tRNA splicing ligase complex subunit 2) | -0.26
TSLIG2 (tRNA splicing ligase complex subunit 2) | -0.71
TSLIG2 (tRNA splicing ligase complex subunit 2) | -1.27
SERGEF (secretion regulating guanine nucleotide exchange factor) | 0.8
SERGEF (secretion regulating guanine nucleotide exchange factor) | 1.09
SERGEF (secretion regulating guanine nucleotide exchange factor) | 2.17
SERGEF (secretion regulating guanine nucleotide exchange factor) | 1.79
UGT1A1 (UDP glucuronosyltransferase family 1 member A1) | -1.05
UGT1A1 (UDP glucuronosyltransferase family 1 member A1) | -0.82
UGT1A1 (UDP glucuronosyltransferase family 1 member A1) | -0.99
UGT1A1 (UDP glucuronosyltransferase family 1 member A1) | -0.47
CHRFAM7A (CHRNA7 (exons 5-10) and FAM7A (exons A-E) fusion) | 2.93 (active)
CHRFAM7A (CHRNA7 (exons 5-10) and FAM7A (exons A-E) fusion) | 2.98 (active)
CHRFAM7A (CHRNA7 (exons 5-10) and FAM7A (exons A-E) fusion) | 0.36
CHRFAM7A (CHRNA7 (exons 5-10) and FAM7A (exons A-E) fusion) | 0.78
C19orf47 (chromosome 19 open reading frame 47) | 0.13
C19orf47 (chromosome 19 open reading frame 47) | -0.72
C19orf47 (chromosome 19 open reading frame 47) | 0.02
C19orf47 (chromosome 19 open reading frame 47) | -0.25
RNF133 (ring finger protein 133) | -0.76
RNF133 (ring finger protein 133) | -1.17
RNF133 (ring finger protein 133) | 1.92
RNF133 (ring finger protein 133) | 3.44 (active)
SPOCK1 | 0.34
SPOCK1 | -0.19
SPOCK1 | -0.04
CAMLG (calcium modulating ligand) | -1.25
CAMLG (calcium modulating ligand) | -0.64
CAMLG (calcium modulating ligand) | -0.55
CAMLG (calcium modulating ligand) | -1.16
TMEM218 (transmembrane protein 218) | -0.58
TMEM218 (transmembrane protein 218) | -1.1
TMEM218 (transmembrane protein 218) | -0.02
TMEM218 (transmembrane protein 218) | -0.92
SLC35B4 | -1.12
SLC35B4 | -0.6
SLC35B4 | -1.07
SLC35B4 | -1.04
NECAP2 (NECAP endocytosis associated 2) | 1.29
NECAP2 (NECAP endocytosis associated 2) | 2.48
NECAP2 (NECAP endocytosis associated 2) | 1.43
NECAP2 (NECAP endocytosis associated 2) | 4.2 (active)
HCN1 | -1.35
HCN1 | -1.14
HCN1 | 0.08
HCN1 | 0.57
RNF151 (ring finger protein 151) | -0.69
RNF151 (ring finger protein 151) | 0.69
RNF151 (ring finger protein 151) | -0.36
RNF151 (ring finger protein 151) | -1.01
NMI (N-myc and STAT interactor) | -1.26
NMI (N-myc and STAT interactor) | -1.07
NMI (N-myc and STAT interactor) | -1.12
NMI (N-myc and STAT interactor) | -1.22
KLHDC2 (kelch domain containing 2) | 2.01
KLHDC2 (kelch domain containing 2) | 1.55
KLHDC2 (kelch domain containing 2) | -0.9
KLHDC2 (kelch domain containing 2) | -0.07
GSTT1 (glutathione S-transferase theta 1) | -0.96
GSTT1 (glutathione S-transferase theta 1) | -0.35
GSTT1 (glutathione S-transferase theta 1) | -0.2
HAUS8 (HAUS augmin like complex subunit 8) | -0.06
HAUS8 (HAUS augmin like complex subunit 8) | -0.17
HAUS8 (HAUS augmin like complex subunit 8) | -1.02
HAUS8 (HAUS augmin like complex subunit 8) | 0.06
PCYT1B (phosphate cytidylyltransferase 1B, choline) | 0.3
PCYT1B (phosphate cytidylyltransferase 1B, choline) | 0.29
PCYT1B (phosphate cytidylyltransferase 1B, choline) | 0.75
PCYT1B (phosphate cytidylyltransferase 1B, choline) | 0.92
IBTK (inhibitor of Bruton tyrosine kinase) | 0
IBTK (inhibitor of Bruton tyrosine kinase) | -0.43
IBTK (inhibitor of Bruton tyrosine kinase) | -0.12
IBTK (inhibitor of Bruton tyrosine kinase) | 0.26
CCDC63 (coiled-coil domain containing 63) | 0.62
CCDC63 (coiled-coil domain containing 63) | 0.42
CCDC63 (coiled-coil domain containing 63) | 0.25
CCDC63 (coiled-coil domain containing 63) | -0.33
TTPA (alpha tocopherol transfer protein) | 0.99
TTPA (alpha tocopherol transfer protein) | 0.89
TTPA (alpha tocopherol transfer protein) | -0.19
TTPA (alpha tocopherol transfer protein) | 2.71
HLA-F (major histocompatibility complex, class I, F) | -0.2
HLA-F (major histocompatibility complex, class I, F) | -0.45
HLA-F (major histocompatibility complex, class I, F) | -0.26
HLA-F (major histocompatibility complex, class I, F) | 0.3
CSF2RA (colony stimulating factor 2 receptor subunit alpha) | 0.12
CSF2RA (colony stimulating factor 2 receptor subunit alpha) | 0.8
CSF2RA (colony stimulating factor 2 receptor subunit alpha) | 0.19
CSF2RA (colony stimulating factor 2 receptor subunit alpha) | 0.22

Called active, among the entries above:
Gene | TNF reporter robust z-score
LMO7 (LIM domain 7) | 3.73 (active)
CHRFAM7A (CHRNA7 (exons 5-10) and FAM7A (exons A-E) fusion) | 2.93 (active)
CHRFAM7A (CHRNA7 (exons 5-10) and FAM7A (exons A-E) fusion) | 2.98 (active)
RNF133 (ring finger protein 133) | 3.44 (active)
NECAP2 (NECAP endocytosis associated 2) | 4.2 (active)
